# Literature values, collected in patent US20190144909A1, “METHODS OF MODULATING BCKDH” (NESTEC S.A., priority 2016, published 2019).
# Entries after “also recorded” stand apart in the source; their conditions may differ. At least one compound was matched to its structure with a doubt left. Some compounds share one wording; it may come from a single statement.
# How the values were obtained:
# [1] = system: branched-chain alpha-keto acid dehydrogenase E1 A subunit (BCKDHA); conditions: Table 1b, from Comparative Toxicogenomics Database
# [2] = system: branched-chain alpha-keto acid dehydrogenase kinase (BCKDH kinase); conditions: Table 2, from Comparative Toxicogenomics Database
Compound,Interaction Actions [1],Interaction Actions [2]
C#C[C@]1(O)CC[C@H]2[C@@H]3CCc4cc(O)ccc4[C@H]3CC[C@@]21C [Ethinyl Estradiol],increases expression; also recorded: affects cotreatment/,–
CN(C)[C@@H]1C(O)=C(C(N)=O)C(=O)[C@@]2(O)C(O)=C3C(=O)c4c(O)cccc4[C@@](C)(O)[C@H]3C[C@@H]12 [Tetracycline],increases expression,–
"CCOC(=O)C(C)(C)Oc1ccc(Cl)cc1 [Clofibrate, reference compound]",increases expression,decreases expression
CN(N=O)C(=O)N[C@@H](C=O)[C@@H](O)[C@H](O)[C@H](O)CO [Streptozocin],affects expression,–
